Laboratory results taken from publication PMC7070087.
These are yes or no findings as the source states them, for the method shown. In cells and extracts the contact can be indirect.

The chains behind the UniProt entries cited, without tags or fusion partners.
UniProt P84022: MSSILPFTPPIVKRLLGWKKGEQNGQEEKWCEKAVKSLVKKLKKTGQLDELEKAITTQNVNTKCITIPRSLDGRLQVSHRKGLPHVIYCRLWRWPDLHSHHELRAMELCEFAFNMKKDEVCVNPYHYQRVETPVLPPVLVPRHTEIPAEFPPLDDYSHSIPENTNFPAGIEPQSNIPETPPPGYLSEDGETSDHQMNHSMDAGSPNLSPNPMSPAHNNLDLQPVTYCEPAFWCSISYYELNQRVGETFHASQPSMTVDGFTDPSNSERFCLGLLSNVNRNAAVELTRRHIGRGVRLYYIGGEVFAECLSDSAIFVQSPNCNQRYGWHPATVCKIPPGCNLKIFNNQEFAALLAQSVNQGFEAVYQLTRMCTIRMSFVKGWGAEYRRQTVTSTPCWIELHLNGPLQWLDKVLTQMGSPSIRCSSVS
UniProt Q9R1E0: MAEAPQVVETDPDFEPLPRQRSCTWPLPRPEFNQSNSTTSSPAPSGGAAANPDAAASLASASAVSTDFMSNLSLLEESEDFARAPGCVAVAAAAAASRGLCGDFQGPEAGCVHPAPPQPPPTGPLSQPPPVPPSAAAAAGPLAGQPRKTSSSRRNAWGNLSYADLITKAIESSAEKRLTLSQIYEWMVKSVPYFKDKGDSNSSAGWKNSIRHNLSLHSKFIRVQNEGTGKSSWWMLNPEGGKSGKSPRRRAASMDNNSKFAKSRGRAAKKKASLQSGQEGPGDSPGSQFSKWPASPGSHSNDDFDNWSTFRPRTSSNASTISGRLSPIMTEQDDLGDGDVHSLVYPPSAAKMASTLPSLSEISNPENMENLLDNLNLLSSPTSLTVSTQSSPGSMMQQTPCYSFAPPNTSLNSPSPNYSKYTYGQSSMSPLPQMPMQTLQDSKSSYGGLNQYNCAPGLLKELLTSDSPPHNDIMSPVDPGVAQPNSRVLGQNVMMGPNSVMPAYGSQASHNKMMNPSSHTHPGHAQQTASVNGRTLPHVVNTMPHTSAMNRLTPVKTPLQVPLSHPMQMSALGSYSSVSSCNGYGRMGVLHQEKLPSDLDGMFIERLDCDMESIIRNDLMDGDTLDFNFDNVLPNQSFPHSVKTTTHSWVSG
UniProt Q8BUN5: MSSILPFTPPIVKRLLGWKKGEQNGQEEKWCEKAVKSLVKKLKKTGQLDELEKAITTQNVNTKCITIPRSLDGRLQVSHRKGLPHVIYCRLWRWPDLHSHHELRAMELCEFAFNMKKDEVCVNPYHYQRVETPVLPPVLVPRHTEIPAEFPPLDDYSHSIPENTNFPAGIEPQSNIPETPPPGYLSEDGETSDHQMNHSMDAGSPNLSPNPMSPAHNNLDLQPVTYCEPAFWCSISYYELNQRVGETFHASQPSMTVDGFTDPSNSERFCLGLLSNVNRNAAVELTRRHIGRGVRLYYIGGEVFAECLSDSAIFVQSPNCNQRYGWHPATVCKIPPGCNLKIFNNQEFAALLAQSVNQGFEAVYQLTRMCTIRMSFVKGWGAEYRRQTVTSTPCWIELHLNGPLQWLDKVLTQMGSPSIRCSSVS

Experiments:
[1] = target: Flag-tagged WT Smad3 (UniProt P84022); experiment: co-IP; as a1, cells treated with 5 ng/ml TGF-β1 and 0.5 mM palmitate together with 10 µM SB431542 (TβR1 kinase inhibitor) for 24 h; IP with mouse anti-Flag, blot with rabbit anti-FOXO1
[2] = target: FOXO1 (mouse (endogenous in MIN6)) (UniProt Q9R1E0); experiment: co-IP; as a3, untransfected MIN6 cells treated with 5 ng/ml TGF-β1 and 0.5 mM palmitate together with 10 µM SB431542 for 24 h; IP with rabbit anti-FOXO1, blot with mouse anti-Smad3

Substance | binding [1] | binding [2]
FOXO1 (from UniProt Q9R1E0 1-652) | no binding (condition: cells treated with 10 µM SB431542) | 
Smad3 (endogenous) (from UniProt Q8BUN5 1-425) |  | no binding (condition: cells treated with 10 µM SB431542)
